Measured data: PubChem BioAssay AID1259308 (NCATS, 2017)
Purpose: 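Genes whose loss raises luciferase production in HEK293 cells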 (primary screen). Cells: human HEK293 embryonic kidney cells stably expressing firefly luciferase (HEK-CMV-Luc2-Hygro). Reagents: single siRNA against human genes, 0.8 pmol siRNA per well. Duration: 72 h. Read-out: 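Reporter luminescence and viable-cell signal on separate replicate plates, given as percent of non-targeting control and median/MAD z-scores, plus per-cell luciferase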. Reading the numbers: total luciferase, z-score and total luciferase, % of control: higher = more reporter protein produced. Rule for the call: 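Active when the median/MAD z-score for overall luciferase is greater than 3; a gene was taken forward for validation with new siRNAs if at least two of its three siRNAs passed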. Calls: active = raised luciferase; inactive = no rise.
Here is an unselected part of about 59,000 reagents tested. About 1,510 of them (2.6%) count as active. 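Calls use total luciferase alone and ignore viability, so some active siRNAs may act by altering cell number.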 Entries without a mark were called inactive. Reagents against one gene are numbered here. Further read-outs or replicates are left out here.

PSAT1 (GeneID 29968) #1 — total luciferase, z-score: -0.637; total luciferase, % of control: 69.2
PSAT1 (GeneID 29968) #2 — total luciferase, z-score: -0.744; total luciferase, % of control: 67.1
PSAT1 (GeneID 29968) #3 — total luciferase, z-score: 0.0971; total luciferase, % of control: 83.8
BCAN (GeneID 63827) #1 — total luciferase, z-score: -0.501; total luciferase, % of control: 71.9
BCAN (GeneID 63827) #2 — total luciferase, z-score: 2.12; total luciferase, % of control: 124
BCAN (GeneID 63827) #3 — total luciferase, z-score: 0.722; total luciferase, % of control: 96.3
DDIT4 (GeneID 54541) #1 — total luciferase, z-score: 0.215; total luciferase, % of control: 86.2
DDIT4 (GeneID 54541) #2 — total luciferase, z-score: -0.218; total luciferase, % of control: 77.6
DDIT4 (GeneID 54541) #3 — total luciferase, z-score: 2.68; total luciferase, % of control: 135
SERPINA3 (GeneID 12) #1 — total luciferase, z-score: 0.219; total luciferase, % of control: 86.3
SERPINA3 (GeneID 12) #2 — total luciferase, z-score: 0.628; total luciferase, % of control: 94.4
SERPINA3 (GeneID 12) #3 — total luciferase, z-score: -0.0759; total luciferase, % of control: 80.4
DAGLA (GeneID 747) #1 — total luciferase, z-score: 0.0393; total luciferase, % of control: 82.7
DAGLA (GeneID 747) #2 — total luciferase, z-score: 0.235; total luciferase, % of control: 86.6
DAGLA (GeneID 747) #3 — total luciferase, z-score: -0.481; total luciferase, % of control: 72.3
LINC01091 (GeneID 285419) #1 — total luciferase, z-score: -0.503; total luciferase, % of control: 71.9
LINC01091 (GeneID 285419) #2 — total luciferase, z-score: -1.99; total luciferase, % of control: 42.3
LINC01091 (GeneID 285419) #3 — total luciferase, z-score: -0.814; total luciferase, % of control: 65.7
VSIG2 (GeneID 23584) #1 — total luciferase, z-score: 0.244; total luciferase, % of control: 86.7
VSIG2 (GeneID 23584) #2 — total luciferase, z-score: -0.28; total luciferase, % of control: 76.3
VSIG2 (GeneID 23584) #3 — total luciferase, z-score: -1.05; total luciferase, % of control: 61
ADGRE4P (GeneID 326342) #1 — total luciferase, z-score: 1.5; total luciferase, % of control: 112
ADGRE4P (GeneID 326342) #2 — total luciferase, z-score: 0.063; total luciferase, % of control: 83.1
ADGRE4P (GeneID 326342) #3 — total luciferase, z-score: 0.752; total luciferase, % of control: 96.8
CRNDE (GeneID 643911) #1 — total luciferase, z-score: 0.878; total luciferase, % of control: 99.3
CRNDE (GeneID 643911) #2 — total luciferase, z-score: -0.396; total luciferase, % of control: 74
CRNDE (GeneID 643911) #3 — total luciferase, z-score: 0.0407; total luciferase, % of control: 82.7
CRNDE (GeneID 643911) #4 — total luciferase, z-score: -0.0139; total luciferase, % of control: 81.6
CRNDE (GeneID 643911) #5 — total luciferase, z-score: -1.06; total luciferase, % of control: 60.9
CRNDE (GeneID 643911) #6 — total luciferase, z-score: 2.43; total luciferase, % of control: 130
RRP1B (GeneID 23076) #1 — total luciferase, z-score: 0.468; total luciferase, % of control: 91.2
RRP1B (GeneID 23076) #2 — total luciferase, z-score: 0.439; total luciferase, % of control: 90.6
RRP1B (GeneID 23076) #3 — total luciferase, z-score: -2.56; total luciferase, % of control: 31.1

Records above whose gene name begins with R or r (3):
RRP1B (GeneID 23076) #1 — total luciferase, z-score: 0.468; total luciferase, % of control: 91.2
RRP1B (GeneID 23076) #2 — total luciferase, z-score: 0.439; total luciferase, % of control: 90.6
RRP1B (GeneID 23076) #3 — total luciferase, z-score: -2.56; total luciferase, % of control: 31.1
